Data as given in PubChem BioAssay AID1259254 (NCATS, 2017).
The whole screen tested about 59,000 reagents; below is an unselected part. Of all reagents, about 1,550 (2.6%) got an active call. 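G2 share is only a proxy for re-replication; each gene was hit by three separate siRNAs, and active genes were retested.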 Raw values vary from plate to plate and are shown uncorrected. Unmarked entries are inactive. The numbers tell different reagents against one gene apart. No sequences are given here. The record does not give: the amount of reagent.

- Screen: 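Genome-wide screen for genes that prevent DNA re-replication in cancer cells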 (primary screen)
- System: human HCT116 colorectal cancer cells
- Reagents: single siRNA against human genes
- Timing: 3 days
- Measured: 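Imaged Hoechst DNA stain sorts each cell into a cycle phase by DNA amount; per plate, G2 fraction set to 0% for non-targeting and 100% for GMNN siRNA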
- Direction: G2 robust z-score and G2 cells, % of GMNN control: higher = more G2 cells, more excess DNA replication; raw share of cells in G2: higher = larger share of cells with G2 DNA content
- Call rule: 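Active siRNAs have a G2 robust z of 5 or more median absolute deviations over the median, which in these data means about 38% or higher of GMNN control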

no.	Gene	siRNA no.	G2 robust z-score	G2 cells, % of GMNN control	raw share of cells in G2 (%)
1	SLAIN2	1	2.05	17.4	11.2
2	SLAIN2	2	-0.0821	2.39	5.6
3	SLAIN2	3	0.873	9.11	5.92
4	LOC643085 (retired record)	1	-0.976	-3.9	2.15
5	LOC643085 (retired record)	2	-1.47	-7.37	0.621
6	LOC643085 (retired record)	3	-0.941	-3.65	2.08
7	CAMK2N2	1	1.02	10.2	8.17
8	CAMK2N2	2	-0.815	-2.76	2.51
9	CAMK2N2	3	-0.0824	2.39	2.52
10	SNU13	1	0.271	4.88	5.12
11	SNU13	2	5.97 (active)	45	24.1
12	SNU13	3	0.55	6.84	6.92
13	ZNF263	1	-0.462	-0.286	4.63
14	ZNF263	2	-0.00169	2.96	6.32
15	ZNF263	3	0.294	5.04	4.92
16	PMVK	1	-0.512	-0.632	5.39
17	PMVK	2	-0.353	0.484	5.37
18	PMVK	3	2.15	18.1	9.49
19	SLC8A2	1	1.25	11.8	7.86
20	SLC8A2	2	0.195	4.34	6.03
21	SLC8A2	3	-0.503	-0.574	5.49
22	TTLL2	1	1.5	13.5	8.61
23	TTLL2	2	1.04	10.3	6.51
24	TTLL2	3	-0.816	-2.77	1.56
25	KRTCAP3	1	-0.106	2.22	3.46
26	KRTCAP3	2	-0.0515	2.61	4.54
27	KRTCAP3	3	0.169	4.16	4.35

Laid out differently: 11 of the entries above.
{"Gene":"SLAIN2","siRNA no.":3,"G2 robust z-score":0.873,"G2 cells, % of GMNN control":9.11,"raw share of cells in G2 (%)":5.92}
{"Gene":"LOC643085 (retired record)","siRNA no.":1,"G2 robust z-score":-0.976,"G2 cells, % of GMNN control":-3.9,"raw share of cells in G2 (%)":2.15}
{"Gene":"LOC643085 (retired record)","siRNA no.":2,"G2 robust z-score":-1.47,"G2 cells, % of GMNN control":-7.37,"raw share of cells in G2 (%)":0.621}
{"Gene":"LOC643085 (retired record)","siRNA no.":3,"G2 robust z-score":-0.941,"G2 cells, % of GMNN control":-3.65,"raw share of cells in G2 (%)":2.08}
{"Gene":"CAMK2N2","siRNA no.":1,"G2 robust z-score":1.02,"G2 cells, % of GMNN control":10.2,"raw share of cells in G2 (%)":8.17}
{"Gene":"CAMK2N2","siRNA no.":2,"G2 robust z-score":-0.815,"G2 cells, % of GMNN control":-2.76,"raw share of cells in G2 (%)":2.51}
{"Gene":"CAMK2N2","siRNA no.":3,"G2 robust z-score":-0.0824,"G2 cells, % of GMNN control":2.39,"raw share of cells in G2 (%)":2.52}
{"Gene":"SNU13","siRNA no.":1,"G2 robust z-score":0.271,"G2 cells, % of GMNN control":4.88,"raw share of cells in G2 (%)":5.12}
{"Gene":"SNU13","siRNA no.":2,"G2 robust z-score":"5.97 (active)","G2 cells, % of GMNN control":45,"raw share of cells in G2 (%)":24.1}
{"Gene":"SNU13","siRNA no.":3,"G2 robust z-score":0.55,"G2 cells, % of GMNN control":6.84,"raw share of cells in G2 (%)":6.92}
{"Gene":"ZNF263","siRNA no.":1,"G2 robust z-score":-0.462,"G2 cells, % of GMNN control":-0.286,"raw share of cells in G2 (%)":4.63}

Further entries follow:
no.	Gene	siRNA no.	G2 robust z-score	G2 cells, % of GMNN control	raw share of cells in G2 (%)
28	VPS39	1	-0.155	1.87	5.12
29	VPS39	2	-0.0743	2.44	5
30	VPS39	3	-0.467	-0.321	3.19
31	RFX8	1	-0.583	-1.14	2.94
32	RFX8	2	1.1	10.7	7.37
33	RFX8	3	-0.536	-0.805	3.96
34	RFX8	4	1.21	11.5	8.17
35	RFX8	5	1.4	12.8	8.76
36	RFX8	6	1.45	13.2	8.44
37	LGI3	1	-0.597	-1.23	5.37
38	LGI3	2	-0.0351	2.72	5.84
39	LGI3	3	1.01	10.1	8.39
40	RPL18AP4	1	0.753	8.27	5.72
41	RPL18AP4	2	-0.211	1.49	3.12
42	RPL18AP4	3	0.0219	3.12	5.35
43	TIGAR	1	-1.27	-5.98	1.99
44	TIGAR	2	1.18	11.2	9.83
45	TIGAR	3	3.66	28.7	12.1
46	DNAJC25	1	0.0456	3.29	4.89
47	DNAJC25	2	-0.0184	2.84	4.49
48	DNAJC25	3	1.92	16.5	8.73
49	ZNF683	1	-0.114	2.16	6.99
50	ZNF683	2	2.02	17.2	11
51	ZNF683	3	0.781	8.47	8.26
52	PATE4	1	-0.889	-3.29	2.61
53	PATE4	2	0.637	7.45	6.47
54	PATE4	3	2.68	21.8	13.8
55	NTM	1	3.28	26	13.8
56	NTM	2	-1.03	-4.29	4.01
57	NTM	3	2.41	19.9	11.6
58	SMCO1	1	2.37	19.6	10.7
59	SMCO1	2	-0.66	-1.67	2.56
60	SMCO1	3	2.79	22.6	10.4
61	INPP5D	1	0.284	4.97	6.41
62	INPP5D	2	-0.513	-0.645	4.11
63	INPP5D	3	-0.369	0.37	3.61
64	KATNB1	1	-0.516	-0.662	5.03
65	KATNB1	2	2.35	19.5	12.1
66	KATNB1	3	1.17	11.2	7.47
67	GABARAPL2	1	0.796	8.57	6.8
68	GABARAPL2	2	-0.47	-0.34	4.04
69	GABARAPL2	3	0.653	7.56	9.4
